From article PMC8877046, “Interferon-β Activity Is Affected by S100B Protein” (International Journal of Molecular Sciences, 2013) come the findings set out here.

These are yes or no findings as the source states them, for the method shown. Some binding calls cover weakened binding; strength is not graded here.

Assay [1] has as its target T1, Human S100B protein (human) (UniProt P04271).
T1 sequence: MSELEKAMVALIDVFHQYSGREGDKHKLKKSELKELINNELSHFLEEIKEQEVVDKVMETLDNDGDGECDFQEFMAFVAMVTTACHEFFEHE
In words: SPR; S100B immobilised by amine coupling with IFN-β bound; regeneration of the chip by passage of 5 mM EDTA pH 8.0 for 200 s; both purified. A general note: SPR reads the build-up and loss of mass on a sensor chip optically.

For assay [2], the target named is T2, Human interferon beta-1a (IFN-β, Rebif) (human), P01574.
T2 chain: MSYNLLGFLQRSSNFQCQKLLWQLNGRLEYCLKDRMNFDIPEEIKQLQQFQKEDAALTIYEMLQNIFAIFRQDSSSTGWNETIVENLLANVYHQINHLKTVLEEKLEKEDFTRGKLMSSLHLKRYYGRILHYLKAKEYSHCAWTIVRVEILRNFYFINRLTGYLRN
The experiment in a line: cross-linking; 5 µM IFN-β with 10 µM Ca2+-depleted S100B (1:2), and 10 µM apo-S100B alone; 40 mM EDAC, 10 mM sulfo-NHS, 25 °C, 1.5 h; 10 mM HEPES, 150 mM NaCl, pH 7.4, without CaCl2 and without chelator; authors say the samples could be contaminated by Ca2+; both purified. The note with it: remark: other sources report otherwise.

The target in assay [3] is T2, Human interferon beta-1a (IFN-β, Rebif) …. The experiment in a line: cross-linking; 5 µM IFN-β with S100B at S100B to IFN-β molar ratios 0.5:1, 1:1, 2:1, and 10 µM S100B alone; 40 mM EDAC, 10 mM sulfo-NHS, 25 °C, 1.5 h; 10 mM HEPES, 150 mM NaCl, pH 7.4, 1 mM CaCl2 (Ca2+-bound S100B); SDS-PAGE, silver staining; both purified. The note with it: remark: other sources report otherwise.

Assay [4] deals with Human interferon beta-1a (IFN-β, Rebif) (human) (UniProt P01574). In words: other fluorescence titration; tryptophan fluorescence of 0.5 µM IFN-β (excitation 295 nm) titrated by S100B; 25 °C; 10 mM HEPES-NaOH, 150 mM NaCl, 5 mM EDTA, pH 7.4; both purified.

As for “Human interferon beta-1a (IFN-β, Rebif) (from UniProt P01574 22-187) (ligand)”, the binding entry in assay [1] is “no binding (condition: with 5 mM EDTA)”.

B1: Human S100B protein, P04271 1-92 (natural protein)
chain: T1 sequence
For the molecule B1, the binding result in assay [2] and in assay [3] was “binds” in each case.

B2: Human S100B protein (natural protein)
chain: T1 sequence
notes: human S100B, UniProt P04271; crystal structure of Ca2+-loaded human S100B dimer PDB 5D7F chains A and B; The authors take the S100B that was amine-coupled to the SPR chip to be partly converted to the monomer; also called apo-S100B; Ca^2+-loaded S100B
In the case of B2, the binding result in assay [4] is listed as “no binding (condition: with 5 mM EDTA)”.
